Earlier results as cited in patent US20150284399A1, “PROCESSES FOR THE PREPARATION OF S1P1 RECEPTOR MODULATORS AND CRYSTALLINE FORMS THEREOF” (Arena Pharmaceuticals, Inc., priority 2010, published 2015).
At least one compound was matched to its structure with a doubt left.

Tests used:
[1] = organ transplantation; cited from earlier work
[2] = Hale et al. 2004; cited from earlier work
[3] = system: patients with multiple sclerosis; settings: Phase II, relapsing-remitting multiple sclerosis patients; cited from earlier work
[4] = system: experimental autoimmune uveoretinitis; settings: cited from earlier work
[5] = system: ovariectomy-induced osteoporosis in mice; settings: by reducing the number of mature osteoclasts attached to the bone surface; cited from earlier work
[6] = system: pathologic angiogenesis; settings: such as may occur in tumor development; cited from earlier work
[7] = system: mouse model of melanoma; settings: cited from earlier work
[8] = system: spared nerve injury model for neuropathic pain; settings: does not depend on prostaglandin synthesis; cited from earlier work
[9] = system: murine contact hypersensitivity (CHS); settings: treatment during the sensitization phase; cited from earlier work
[10] = system: C57BL/6 mice; settings: prophylactic oral administration, 1 mg/kg, three times a week; cited from earlier work

SMILES | delaying or suppressing transplant rejection [1] | induction of lymphopenia (peripheral lymphocyte lowering, PLL) [2] | number of lesions detected by MRI and clinical disease activity [3] | retinal damage ([4]; given in the early stages of ocular inflammation) | ocular infiltrates ([4]; short-term high dose) | ovariectomy-induced osteoporosis [5] | inhibition of pathologic angiogenesis [6] | inhibition of primary and metastatic tumor growth [7] | nociceptive behavior [8] | initiation of contact hypersensitivity (CHS) [9] | development of experimental autoimmune myasthenia gravis (EAMG) [10]
C=CC[C@@H]1/C=C(\C)C[C@H](C)C[C@H](OC)[C@H]2O[C@@](O)(C(=O)C(=O)N3CCCC[C@H]3C(=O)O[C@H](/C(C)=C/[C@@H]3CC[C@@H](O)[C@H](OC)C3)[C@H](C)[C@@H](O)CC1=O)[C@H](C)C[C@@H]2OC [FK506] | effective in delaying or suppressing transplant rejection | – | – | – | – | – | – | – | – | – | –
CCCCCCCCc1ccc(CCC(N)(CO)CO)cc1 [FTY720, fingolimod] | – | rapidly and reversibly induce lymphopenia | reduce the number of lesions detected by magnetic resonance imaging (MRI) and clinical disease activity | rapidly prevented retinal damage | rapidly reduced ocular infiltrates | relieved ovariectomy-induced osteoporosis | therapeutic efficacy in inhibiting pathologic angiogenesis | therapeutic efficacy for inhibiting primary and metastatic tumor growth | reduce the nociceptive behavior | impair initiation of murine contact hypersensitivity (CHS) | completely prevented the development of experimental autoimmune myasthenia gravis (EAMG)
